These results are taken from patent US11155576B2 (BRANDEIS UNIVERSITY, priority 2014, dated 2021).

Data set [1] has as its system HeLa cells. Nature of the data set: SEM of freeze-dried HeLa cells. The data set is classed as cell-based, human.
Data set [2] can be described thus: general procedure: Fmoc solid-phase peptide synthesis. The note with it: whole synthesis.

For `O=C(Cc1ccc2ccccc2c1)N[C@H](Cc1ccccc1)C(=O)N[C@H](Cc1ccccc1)C(=O)N[C@H](Cc1ccc(OP(=O)(O)O)cc1)C(=O)O` [D-2a, Nap-D-Phe-D-Phe-D-Tyr(PO3H2)], the “Cell surface appearance by SEM” value in data set [1] (280 μM) is reported as “fiber-like structures attached closely to the cell surface”; in data set [1] (560 μM), “covered in porous structures (i.e., nanonets)”.

For the molecule NBD-D-Nal-D-Phe-D-Phe-D-pTyr, in data set [2], the isolated yield was found to be 60%.
